Where a chain is given by its changes, count along the chain named. Weaker means in comparison with the reference protein, sequence or condition of that experiment. Where a protein sequence is shown, tags need not be part of it.
Assays:
[1] = molecular target: T1, PaP3 TM-TerS K17A,K19A,K33A (Pseudomonas phage PaP3) (UniProt Q8H9R5); test: EMSA; settings: agarose gel, 0-40 uM TerS, disrupted more than DM; EMSA: incubation 37 C 30 min (binding buffer not stated; proteins in GF buffer 20 mM Tris-HCl pH 7.5, 150 mM NaCl, 5 mM bME, 2.5% glycerol); recombinant protein; residues 1-152; protein details: GST removed by PreScission protease; label: 5' Cy3 on both strands
T1 sequence (looked up): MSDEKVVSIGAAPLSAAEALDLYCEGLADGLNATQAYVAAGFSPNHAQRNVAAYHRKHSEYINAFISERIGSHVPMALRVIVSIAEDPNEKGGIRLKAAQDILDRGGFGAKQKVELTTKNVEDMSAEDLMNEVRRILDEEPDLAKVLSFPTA

[2] = molecular target: T2, PaP3 TerS WT (small terminase, peak 2) (Pseudomonas phage PaP3) (UniProt Q8H9R5); test: EMSA; settings: agarose gel, 0-40 uM TerS, cos bound with significantly higher affinity; EMSA: incubation 37 C 30 min (binding buffer not stated; proteins in GF buffer 20 mM Tris-HCl pH 7.5, 150 mM NaCl, 5 mM bME, 2.5% glycerol); recombinant protein; residues 1-152; protein details: GST removed by PreScission protease; label: 5' Cy3
T2 sequence (looked up): T1 sequence (looked up) with A17K, A19K, A33K

Sequence	binding result [1]	binding result [2]
GCCGGCCCCTTTCCGCGTTA (double strand) [Cy3-cos]	binds more weakly	–
GCACTGCAGTAACTTGTCAGTCAT (double strand) [Cy3-scr]	–	binds more weakly
